Reference: publication PMC9781295
Results are given in words; binding and its absence hold for the method and conditions named. For part of these data: In cells and extracts the contact can be indirect. Some results given as binding are weak or reduced against the parent protein; the word gives no strength. Tags and fused reporters may be left off the sequences shown.

Experiments:
[1] = biological target: human glycine transporter 1b (GlyT1b), wild type, epitope-tagged (human) (UniProt P48067); assay: non-reducing SDS-PAGE and immunoblot of cell lysates; no cross-linker (spontaneously occurring dimers); HEK293 cells stably expressing FLAG-GlyT1b or mutants, total lysates in non-reducing sample buffer, anti-FLAG immunoblot; lysates with or without 100 mM DTT at 22 °C for 1 h
[2] = biological target: human glycine transporter 1b (GlyT1b), wild type, epitope-tagged (human) (UniProt P48067); assay: co-IP; HEK293 cells co-expressing FLAG-GlyT1 and GlyT1-HA (plasmids 1:1), lysed in RIPA buffer (50 mM Tris, 5 mM EDTA, 150 mM NaCl, 1% Triton X-100, pH 7.5); anti-FLAG M2 or anti-HA agarose at 4 °C overnight; eluted with 3xFLAG or HA peptide; SDS-PAGE and immunoblot for the other tag
[3] = biological target: human glycine transporter 1b (GlyT1b), wild type, epitope-tagged (human) (UniProt P48067); assay: cross-linking; oxidative cross-linking on intact HEK293 cells with copper phenanthroline (CuP, 1-100 μM) for 15 min at 22 °C in HEPES buffered saline, quenched with 10 mM N-ethylmaleimide; lysates in non-reducing sample buffer, anti-FLAG immunoblot; also with ZnCl2, NMDGCl, Na+, glycine, bitopertin or LY2365109 present, or 100 mM DTT on the lysates

Measured: binding

B1: human glycine transporter 1b (GlyT1b), wild type, epitope-tagged (protein, UniProt P48067-3 1-652)
chain: MSGGDTRAAIARPRMAAAHGPVAPSSPEQNGAVPSEATKRDQNLKRGNWGNQIEFVLTSVGYAVGLGNVWRFPYLCYRNGGGAFMFPYFIMLIFCGIPLFFMELSFGQFASQGCLGVWRISPMFKGVGYGMMVVSTYIGIYYNVVICIAFYYFFSSMTHVLPWAYCNNPWNTHDCAGVLDASNLTNGSRPAALPSNLSHLLNHSLQRTSPSEEYWRLYVLKLSDDIGNFGEVRLPLLGCLGVSWLVVFLCLIRGVKSSGKVVYFTATFPYVVLTILFVRGVTLEGAFDGIMYYLTPQWDKILEAKVWGDAASQIFYSLGCAWGGLITMASYNKFHNNCYRDSVIISITNCATSVYAGFVIFSILGFMANHLGVDVSRVADHGPGLAFVAYPEALTLLPISPLWSLLFFFMLILLGLGTQFCLLETLVTAIVDEVGNEWILQKKTYVTLGVAVAGFLLGIPLTSQAGIYWLLLMDNYAASFSLVVISCIMCVAIMYIYGHRNYFQDIQMMLGFPPPLFFQICWRFVSPAIIFFILVFTVIQYQPITYNHYQYPGWAVAIGFLMALSSVLCIPLYAMFRLCRTDGDTLLQRLKNATKPSRDWGPALLEHRTGRYAPTIAPSPEDGFEVQPLHPDKAQIPIVGSNGSSRLQDSRI
binds: all assays above
